# Laboratory results as given in paper PMC11497800.
# System: sigma70-saturated RNA polymerase holoenzyme (Escherichia coli)
# Assay: EMSA
# Settings: with bssA promoter and recA fragment as competitors; 25 C, 30 min; Novex 6% DNA retardation gel, ethidium bromide; commercial protein; label: none (ethidium bromide stain); probe letters rebuilt from the primers and the genome
sequence,measurement,value
ACACCGGCCAGAACTATGGCCATGGCAAGGATAAGCCTGATCTTTTTCGGTCTCAGCATAATTTACCGGAAGTATAGCATCATAAAAAATGGCTGTAAAGCGCTTTGTGGCGGGCAATTAAAAATTTGGCATGGAGATTGAAGAAGGATAAAAACCGGGTGAAGGAACAGCGGAAAAGCAAGTAAAAAATGGTATCAGATCGGGCTCATTTGTAATAACGGTCCGTTATCTCTCCCCATACCCCCTGCTCCTTGAGAAGAAGATCACAAACCTCGCGAACTGCGCCCCAGCCACCTCGATTTCTAGTCACAAAATGGGCGTGAGGAATAACTTCCGCCACGGCGTCGGCAGGTGCAGCAGCAAAACCGGCCCGCCTCATAACAGGGATATCAATCACGTCATCACCGACAAAAGCTACCTGAGAATGGTCCAGACCGGTCGCCTCCAGTATCTTAAGATACGGTGTCAGCTTGTCCAGACACTTCTGATAAACGATGCCGATAGCGAGCTC (double strand) [rpoN operon promoter],binding result,binds

# For at least one entry, the source does not settle the construct or the ends of the probe.
